Reference: PubChem BioAssay AID1259405 (NCATS, 2018)
Aim: 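Mouse-designed siRNAs used to find CHO productivity engineering targets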 (primary screen). Cells: Chinese hamster CHO-K1 ovary cells with stable secreted eGFP expression. Knock-down reagent: single siRNA against mouse genes, 0.8 pmol siRNA per well (2 µl of 400 nM stock). Duration: 3 days. Measured: 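Percent of the per-plate non-targeting control median for intracellular GFP per well by laser scanning cytometry and for cell viability by ATP luminescence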. Reading the numbers: GFP, % of control: higher = more GFP per well, higher productivity; viability (ATP), % of control: higher = more viable cells (more ATP). Call rule: 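a knock-down is called active if GFP reaches 120% or more of non-targeting control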.
Here is a random part of about 50,000 reagents. About 4,000 of all reagents (8%) were called active. 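Mouse siRNA library applied to hamster cells; one well for each siRNA.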 The numbers tell different reagents against one gene apart.

With Mbnl2 (muscleblind like splicing factor 2) #1, what was measured?
GFP, % of control: 80.1; viability (ATP), % of control: 59.8; activity call: inactive

With Mbnl2 (muscleblind like splicing factor 2) #2, what does the deposit list?
GFP, % of control: 66.7; viability (ATP), % of control: 77.2; activity call: inactive

Which result is listed for Mbnl2 (muscleblind like splicing factor 2) #3?
GFP, % of control: 50.9; viability (ATP), % of control: 50.8; activity call: inactive

How did the screen score Mapt (microtubule-associated protein tau) #1?
GFP, % of control: 112; viability (ATP), % of control: 92.8; activity call: inactive

Which result is listed for Mapt (microtubule-associated protein tau) #2?
GFP, % of control: 53.3; viability (ATP), % of control: 47.9; activity call: inactive

For Mapt (microtubule-associated protein tau) #3, what was measured?
GFP, % of control: 69.9; viability (ATP), % of control: 83.4; activity call: inactive

Which result is listed for Gorab (golgin, RAB6-interacting) #1?
GFP, % of control: 53.7; viability (ATP), % of control: 41.6; activity call: inactive

For Gorab (golgin, RAB6-interacting) #2, how do the results read?
GFP, % of control: 95.4; viability (ATP), % of control: 119; activity call: inactive

What did the screen give for Gorab (golgin, RAB6-interacting) #3?
GFP, % of control: 45.6; viability (ATP), % of control: 37.1; activity call: inactive

What is on record for Arf4 (ARF GTPase 4) #1?
GFP, % of control: 67; viability (ATP), % of control: 82.3; activity call: inactive

What did the screen give for Arf4 (ARF GTPase 4) #2?
GFP, % of control: 82.9; viability (ATP), % of control: 109; activity call: inactive

How did the screen score Arf4 (ARF GTPase 4) #3?
GFP, % of control: 72; viability (ATP), % of control: 93.9; activity call: inactive

Which result is listed for Pcdhb1 (protocadherin beta 1) #1?
GFP, % of control: 58.6; viability (ATP), % of control: 65.6; activity call: inactive

What is on record for Pcdhb1 (protocadherin beta 1) #2?
GFP, % of control: 87.4; viability (ATP), % of control: 72; activity call: inactive

Reformatted: 5 of the entries above.
{"gene": "Mapt (microtubule-associated protein tau)", "siRNA no.": 2, "GFP, % of control": 53.3, "viability (ATP), % of control": 47.9, "activity call": "inactive"}
{"gene": "Mapt (microtubule-associated protein tau)", "siRNA no.": 3, "GFP, % of control": 69.9, "viability (ATP), % of control": 83.4, "activity call": "inactive"}
{"gene": "Gorab (golgin, RAB6-interacting)", "siRNA no.": 1, "GFP, % of control": 53.7, "viability (ATP), % of control": 41.6, "activity call": "inactive"}
{"gene": "Gorab (golgin, RAB6-interacting)", "siRNA no.": 2, "GFP, % of control": 95.4, "viability (ATP), % of control": 119, "activity call": "inactive"}
{"gene": "Gorab (golgin, RAB6-interacting)", "siRNA no.": 3, "GFP, % of control": 45.6, "viability (ATP), % of control": 37.1, "activity call": "inactive"}

Next reagents follow.
For Or5w13 (olfactory receptor family 5 subfamily W member 13) #1, what was measured?
GFP, % of control: 63.6; viability (ATP), % of control: 52.4; activity call: inactive

How did the screen score Or5w13 (olfactory receptor family 5 subfamily W member 13) #2?
GFP, % of control: 40.1; viability (ATP), % of control: 61.5; activity call: inactive

Which result is listed for Or5w13 (olfactory receptor family 5 subfamily W member 13) #3?
GFP, % of control: 64.1; viability (ATP), % of control: 67.4; activity call: inactive

What did the screen give for Dpf1 (double PHD fingers 1) #1?
GFP, % of control: 43.3; viability (ATP), % of control: 44.2; activity call: inactive

With Dpf1 (double PHD fingers 1) #2, what was measured?
GFP, % of control: 72.4; viability (ATP), % of control: 47.8; activity call: inactive

Which result is listed for Dpf1 (double PHD fingers 1) #3?
GFP, % of control: 186; viability (ATP), % of control: 127; activity call: active

How did the screen score Nfkb2 #1?
GFP, % of control: 104; viability (ATP), % of control: 112; activity call: inactive

With Nfkb2 #2, what was measured?
GFP, % of control: 63; viability (ATP), % of control: 64.4; activity call: inactive

With Nfkb2 #3, what was measured?
GFP, % of control: 104; viability (ATP), % of control: 118; activity call: inactive

How did the screen score Tdrd6 (tudor domain containing 6) #1?
GFP, % of control: 60; viability (ATP), % of control: 142; activity call: inactive

With Tdrd6 (tudor domain containing 6) #2, how do the results read?
GFP, % of control: 76.6; viability (ATP), % of control: 87.2; activity call: inactive

For Tdrd6 (tudor domain containing 6) #3, what does the deposit list?
GFP, % of control: 65.6; viability (ATP), % of control: 59.8; activity call: inactive

How did the screen score Tmem192 (transmembrane protein 192) #1?
GFP, % of control: 121; viability (ATP), % of control: 75; activity call: active

What is on record for Tmem192 (transmembrane protein 192) #2?
GFP, % of control: 61; viability (ATP), % of control: 58.4; activity call: inactive

What did the screen give for Tmem192 (transmembrane protein 192) #3?
GFP, % of control: 82.5; viability (ATP), % of control: 73.4; activity call: inactive
